{"source": "patent US20210169075A1", "about": "“ANTIBIOFILM FORMULATIONS AND METHODS FOR MICROBIAL DECONTAMINATION” (priority 2019, published 2021)", "assay": "SEM of tubing after neat chemical treatment", "conditions": "neat chemical for 24 hours", "note": "Entries after “also recorded” stand apart in the source; their conditions may differ."}
{"smiles": "CCCCCC", "note": "[hexane]", "values": [{"measurement": "physical damage of tubing by SEM", "value": "no physical abnormalities; also recorded: little to no physical damage"}]}
